Chains of the proteins cited; added tags and fusions are not shown. Lines headed by an entry give the natural chain unless they say otherwise; changes in a name come on top.
UniProt Q9NXW2: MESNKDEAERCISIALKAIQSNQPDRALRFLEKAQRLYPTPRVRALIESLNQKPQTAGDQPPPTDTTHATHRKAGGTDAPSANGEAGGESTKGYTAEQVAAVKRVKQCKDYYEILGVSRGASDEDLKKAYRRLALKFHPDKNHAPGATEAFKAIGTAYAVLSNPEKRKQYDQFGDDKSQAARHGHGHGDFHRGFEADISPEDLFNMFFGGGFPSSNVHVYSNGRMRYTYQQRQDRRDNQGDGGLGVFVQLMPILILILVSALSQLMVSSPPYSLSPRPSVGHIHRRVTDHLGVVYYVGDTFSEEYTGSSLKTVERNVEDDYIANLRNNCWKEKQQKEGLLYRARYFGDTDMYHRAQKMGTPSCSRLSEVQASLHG
UniProt Q8TBM8: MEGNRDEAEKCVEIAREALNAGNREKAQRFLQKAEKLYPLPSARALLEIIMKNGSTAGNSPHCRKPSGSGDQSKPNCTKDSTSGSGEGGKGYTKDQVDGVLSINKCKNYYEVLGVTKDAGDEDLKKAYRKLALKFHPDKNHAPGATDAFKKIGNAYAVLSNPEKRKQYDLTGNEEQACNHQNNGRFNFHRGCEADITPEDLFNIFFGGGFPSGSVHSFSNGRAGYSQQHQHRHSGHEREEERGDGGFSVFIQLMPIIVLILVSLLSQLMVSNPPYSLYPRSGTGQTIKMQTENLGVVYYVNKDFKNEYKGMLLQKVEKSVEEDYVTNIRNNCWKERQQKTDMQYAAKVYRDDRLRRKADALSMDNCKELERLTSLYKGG
UniProt P13569: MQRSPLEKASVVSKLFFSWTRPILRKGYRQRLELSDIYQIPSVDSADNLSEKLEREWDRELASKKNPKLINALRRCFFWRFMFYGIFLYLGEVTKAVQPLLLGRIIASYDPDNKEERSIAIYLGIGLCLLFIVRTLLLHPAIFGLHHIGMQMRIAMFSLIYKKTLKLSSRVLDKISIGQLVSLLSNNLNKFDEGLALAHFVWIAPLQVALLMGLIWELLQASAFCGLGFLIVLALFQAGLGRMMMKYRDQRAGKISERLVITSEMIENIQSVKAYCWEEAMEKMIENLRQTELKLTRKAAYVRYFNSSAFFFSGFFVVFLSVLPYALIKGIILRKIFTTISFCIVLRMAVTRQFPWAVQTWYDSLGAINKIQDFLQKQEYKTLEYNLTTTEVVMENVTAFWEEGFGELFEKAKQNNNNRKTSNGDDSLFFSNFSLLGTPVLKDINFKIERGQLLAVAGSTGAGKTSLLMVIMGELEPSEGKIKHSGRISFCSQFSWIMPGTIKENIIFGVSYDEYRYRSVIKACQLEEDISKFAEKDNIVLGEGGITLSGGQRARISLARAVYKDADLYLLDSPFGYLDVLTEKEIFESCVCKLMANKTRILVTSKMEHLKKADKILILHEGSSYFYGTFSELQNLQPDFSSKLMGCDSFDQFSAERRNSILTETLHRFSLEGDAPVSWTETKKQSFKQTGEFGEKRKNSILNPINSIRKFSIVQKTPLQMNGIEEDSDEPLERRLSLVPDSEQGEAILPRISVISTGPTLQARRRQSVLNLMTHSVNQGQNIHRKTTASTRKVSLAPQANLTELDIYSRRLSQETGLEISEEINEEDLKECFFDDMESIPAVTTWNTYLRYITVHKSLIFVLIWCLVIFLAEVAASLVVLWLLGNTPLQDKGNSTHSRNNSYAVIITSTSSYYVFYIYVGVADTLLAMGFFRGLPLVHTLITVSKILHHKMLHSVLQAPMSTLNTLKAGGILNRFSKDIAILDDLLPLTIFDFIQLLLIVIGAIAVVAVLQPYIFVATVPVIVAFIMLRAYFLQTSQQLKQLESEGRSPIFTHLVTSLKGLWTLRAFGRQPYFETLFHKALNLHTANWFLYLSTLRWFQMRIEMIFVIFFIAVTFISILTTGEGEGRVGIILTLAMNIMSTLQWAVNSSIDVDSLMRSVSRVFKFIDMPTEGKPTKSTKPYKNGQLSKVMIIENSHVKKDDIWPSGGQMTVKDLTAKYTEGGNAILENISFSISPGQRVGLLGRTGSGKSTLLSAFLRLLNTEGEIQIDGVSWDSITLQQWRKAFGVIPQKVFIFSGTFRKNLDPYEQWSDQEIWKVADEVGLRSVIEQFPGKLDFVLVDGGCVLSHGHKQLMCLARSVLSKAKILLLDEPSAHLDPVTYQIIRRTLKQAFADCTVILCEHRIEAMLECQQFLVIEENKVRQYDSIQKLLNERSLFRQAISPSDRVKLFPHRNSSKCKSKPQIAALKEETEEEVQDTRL

In PMC6614449:

Key:
[1] = target: DNAJB12 (on the ProtoArray) (UniProt Q9NXW2); test: peptide or protein array; ProtoArray protein microarray (Invitrogen / ThermoFisher) probed with purified full length FLAG-CFTR in solution; bound CFTR detected with mouse anti-FLAG monoclonal antibody and Alexa-488 secondary antibody, fluorescence scanner; mean of duplicate; both purified
[2] = target: DNAJB14 (on the ProtoArray) (UniProt Q8TBM8); test: as above

With “full length FLAG-CFTR (WT-CFTR) (from UniProt P13569 1-1480)” the binding [1] was “binds” and the binding [2] was “binds”.

Results are given in words; binding and its absence hold for the method and conditions named. Binding can be weak; no strength is given.
